From PubChem BioAssay AID260 (DTP/NCI, 2004)
The list shows only some results of the screen, not a fair sample: its compounds were picked by chemical class. Other doses and runs of a compound may be missing. T/C is the treated group as % of the vehicle group. Where survival is the endpoint, the PubChem record calls one and a half times the control and up active, and a quarter to a half above the control has no call in these data; cut-offs in other NCI protocols can differ. Some entries show no survivor count and are marked so; the dose need not have been tolerated. Schedules are NCI's codes, read here as Q, the interval in days (D) or hours (H), X, the number of doses.

Tested on: CD2F1 mice, intracerebral L1210 leukemia, survival T/C
Assay: NCI In Vivo Anticancer Drug Screen. Data for tumor model L1210 Leukemia (intracerebral) in CD2F1 (CDF1) mice
Conditions: T/C endpoint: median survival time, schedule: Q01DX001 (ip), higher T/C = longer survival
Procedure: The antitumor activity of compounds was measured in mice bearing transplantable tumors. Survival or tumor size were measured and the results are expressed as the measurement made in the treated group (T) divided by the measurement made in the vehicle treated control group (C). The tumor model used in this assay is L1210 Leukemia (intracerebral) in CD2F1 (CDF1) mice

Structure (SMILES)	T/C (dose: 40.0 mg/kg/injection, vehicle: saline)	T/C (dose: 80.0 mg/kg/injection, vehicle: saline)	T/C (dose: 160.0 mg/kg/injection, vehicle: saline)	T/C (dose: 4.0 mg/kg/injection, vehicle: other)	T/C (dose: 8.0 mg/kg/injection, vehicle: other)	T/C (dose: 16.0 mg/kg/injection, vehicle: other)	T/C (dose: 32.0 mg/kg/injection, vehicle: other)	T/C (dose: 128.0 mg/kg/injection, vehicle: other)
NC1CCCCC1.NP(=O)(O)N(CCCl)CCCl	94 % of control [survivor count not shown]	95 % of control [survivor count not shown]	106 % of control [survivor count not shown]	–	–	–	–	–
O=NN(CCSCCCl)C(=O)NC1CCCCC1	–	–	–	102 % of control [survivor count not shown]	102 % of control [survivor count not shown]	116 % of control [survivor count not shown]	97 % of control [survivor count not shown]	87 % of control [survivor count not shown]
